At least one structure is not confirmed: it was looked up by name or label, or the drawing left a doubt.
Tested on: G1 NIH 3T3 nuclei
Assay: Cell-free DNA replication assay: G1 nuclei in HeLa S phase cytosol, biotin-dUTP incorporation, percentage of nuclei replicating (staining yellow)
Assay type: biochemical, mouse
Settings: about 50% yellow staining nuclei without inhibitor

## Cn1cnc2c(NCc3ccccc3)nc(NCCO)nc21 [olomoucine]
10 μM
  yellow staining nuclei: about 18%
2 mM
  decrease of yellow staining nuclei: a similar decrease

Source: patent publication US6521405B1, “Cell-free replication system and uses thereof” (Cancer Research Campaign Technology Limited, priority 1997, dated 2003)
